Values from PubChem BioAssay AID686937 (Drosophila RNAi Screening Center, 2013).

- Aim: 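Genes in the fly needed for secretion of protein constitutively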 (primary screen)
- Cells: Drosophila S2 cells expressing secreted horseradish peroxidase
- Reagents: long dsRNA against Drosophila genes
- Time to read-out: about 5.5 days (5 days dsRNA, then 12 h reporter induction)
- Conditions: reporter expression induced after 5 days of dsRNA, read 12 h later; inducer not stated
- Measured: 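After 5 days of dsRNA and 12 h of reporter induction, medium peroxidase read by chemiluminescence and scored as per-plate z-score; higher values mean more reporter released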
- Direction: z-score: higher = more reporter secreted into medium
The deposit covers about 23,000 reagents; this is a random part of those that have a named target and a result. 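Reduced-secretion tags in replicate 1 do not always agree with the z-scores; no criterion for assigning the tags was given.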 The numbers tell different reagents against one gene apart. Names joined by + are all predicted targets of the reagent. Further read-outs or replicates are left out here. The record does not give: the amount of reagent.

| gene | reagent | z-score, replicate 1 | z-score, replicate 2 | z-score, replicate 3 |
| --- | --- | --- | --- | --- |
| CG31213 | 1 | 0.11 | 0.23 | – |
| CG31213 | 2 | 0.33 | 0.47 | – |
| Dys + snoRNA:Me18S-A1374 | 1 | -0.47 | -1.08 | – |
| CG9706 | 1 | -0.93 | -1.08 | – |
| CG14020 | 1 | 0.3 | 0.11 | – |
| fz (frizzled) | 1 | 0.2 | 0.34 | – |
| fd102C (forkhead domain 102C) | 1 | -0.08 | -0.19 | – |
| CG42841 | 1 | -0.41 | -0.02 | – |
| gzl (godzilla E3 ubiquitin protein ligase) | 1 | 0.44 | 0.58 | – |
| RpS19b (Ribosomal protein S19b) | 1 | -0.51 | -0.57 | – |
| CG30430 | 1 | 1.56 | 1.01 | – |
| r-l (rudimentary-like) | 1 | 0.14 | 0.38 | 0.27 |
| r-l (rudimentary-like) | 2 | 0.87 | 2.35 | – |
| Mccc2 (Methylcrotonoyl-CoA carboxylase 2) | 1 | 0.16 | 0.12 | – |
| CG7506 | 1 | 0.38 | 0.4 | – |
| CG12219 | 1 | 0.37 | 0.36 | – |
| tzn (tenzing norgay) | 1 | 0.16 | 0.24 | – |
| CG18180 | 1 | 0.05 | 0.05 | – |
| CG7910 | 1 | 0.32 | 0.3 | – |
| aurA (aurora A) | 1 | -1.36 | -0.67 | – |
| lncRNA:CR34046 (long non-coding RNA:CR34046) | 1 | 0.3 | 0.19 | – |
| Ir56b (Ionotropic receptor 56b) | 1 | 0.43 | 0.39 | – |
| CG13625 | 1 | -1.53 | -1.42 | – |
| CG14053 | 1 | 0.24 | 0.06 | – |
| Targ (Tarag) | 1 | 0.12 | 0.17 | – |
| mu2 (mutator 2) | 1 | 0.22 | 0.5 | – |
| mu2 (mutator 2) | 2 | -0.24 | -0.4 | – |
| pan (pangolin) | 1 | 0.38 | 0.33 | – |
| pan (pangolin) | 2 | -0.79 | 0.57 | – |
| CG12702 | 1 | 0.21 | 0.53 | – |
| Ipo9 (Importin 9) | 1 | 0.25 | 0.2 | – |
| tilB (touch insensitive larva B) | 1 | 0.13 | 0 | – |
| FMRFaR (FMRFamide Receptor) | 1 | 0.35 | 0.28 | – |
| Oamb (Octopamine receptor in mushroom bodies) | 1 | -0.06 | -0.13 | – |
| Oamb (Octopamine receptor in mushroom bodies) | 2 | 0 | -0.21 | – |
| Oamb (Octopamine receptor in mushroom bodies) | 3 | 0.22 | 0.52 | – |
| CG17344 | 1 | 0.17 | 0.25 | – |
| sphinx2 | 1 | -0.05 | -0.12 | – |
| Pex1 (Peroxin 1) | 1 | 0.46 | 0.39 | – |
| CG34266 | 1 | -0.16 | 0.2 | – |
| ste24b (ste24b prenyl protease type I) | 1 | 0.08 | 0.3 | – |
| CG31274 + MESK4 | 1 | 0.2 | 0.29 | – |
| Vha68-1 (Vacuolar H[+] ATPase 68kD subunit 1) | 1 | 0.4 | 0.67 | – |
| X11L | 1 | 0.23 | 0.49 | 0.69 |
| X11L | 2 | 0.42 | 0.64 | – |

Records above whose target name starts with M or m (3):
| gene | reagent | z-score, replicate 1 | z-score, replicate 2 | z-score, replicate 3 |
| --- | --- | --- | --- | --- |
| Mccc2 (Methylcrotonoyl-CoA carboxylase 2) | 1 | 0.16 | 0.12 | – |
| mu2 (mutator 2) | 1 | 0.22 | 0.5 | – |
| mu2 (mutator 2) | 2 | -0.24 | -0.4 | – |

The results go on:
| gene | reagent | z-score, replicate 1 | z-score, replicate 2 | z-score, replicate 3 |
| --- | --- | --- | --- | --- |
| Mgat4b | 1 | 0.17 | 0.11 | – |
| Pect (Phosphoethanolamine cytidylyltransferase) | 1 | 0.28 | 0.2 | – |
| Pect (Phosphoethanolamine cytidylyltransferase) | 2 | -1.22 | -1.34 | – |
| Gyf (Gigyf) | 1 | -0.24 | -0.22 | – |
| regucalcin | 1 | -0.11 | 0.78 | – |
| regucalcin | 2 | 0.38 | 0.81 | – |
| CG4042 | 1 | 0.29 | 0.14 | – |
| Fbw5 (F-box and WD repeat domain containing 5) | 1 | 0.13 | -0.02 | – |
| CG9286 | 1 | 0.21 | 0.4 | – |
| CG34012 | 1 | -0.35 | -0.24 | – |
| cact (cactus) | 1 | -0.03 | 0.18 | – |
| Scamp | 1 | 0.65 | 0.61 | – |
| GatA (Glutamyl-tRNA amidotransferase, subunit A) | 1 | 0.33 | 0.23 | – |
| Spase22-23 (Spase 22/23-subunit) | 1 | -1.4 | -0.74 | – |
| raptor | 1 | -3.11 | -3.02 | – |
| CG5561 | 1 | -0.07 | 0.16 | – |
| Cap-D3 + tomb | 1 | 0.19 | 0.24 | – |
| Ir67b (Ionotropic receptor 67b) | 1 | 0.64 | 0.54 | – |
| CG31710 | 1 | 0.5 | 0.31 | 0.44 |
| CG31710 | 2 | 0.68 | 0.43 | – |
| Syx4 (Syntaxin 4) | 1 | 0.14 | 0.37 | – |
| CG3907 | 1 | 0.33 | -0.2 | – |
| CG43052 | 1 | 0.53 | 0.31 | – |
| AP-1gamma (Adaptor Protein complex 1, gamma subunit) | 1 | -0.43 | -0.64 | – |
| CG9391 | 1 | 0.11 | 0.37 | – |
| Ufsp1 (UFM1 specific peptidase 1) | 1 | 0.19 | – | – |
| RpL32 (Ribosomal protein L32) | 1 | -3.53 | -4.76 | 0.47 |
| CG4073 | 1 | 0.13 | 0.69 | – |
| CG6749 | 1 | 0.43 | 0.33 | – |
| RhoGAP15B (Rho GTPase activating protein at 15B) | 1 | 0.06 | 0.21 | – |
| RhoGAP15B (Rho GTPase activating protein at 15B) | 2 | 0.01 | -0.01 | – |
| hiw (highwire) | 1 | 0.12 | 0.3 | – |
| hiw (highwire) | 2 | 0.15 | -0.3 | – |
| CCT6 (Chaperonin containing TCP1 subunit 6) | 1 | -5.84 | -0.89 | – |
| AstC (Allatostatin C) | 1 | 0.03 | 0.26 | – |
| CG12963 | 1 | -0.41 | -0.29 | – |
| CG12963 | 2 | 0.36 | -0.02 | – |
